Results reported in US10138238B2, “Pesticidally active polycyclic derivatives with sulfur containing substituents” (Syngenta Participations AG, priority 2015, dated 2018).
Some entries share one result that the patent states for a list of compounds.

Tested on: Anopheles stephensi (Indian Malaria Mosquito)
Test: Example B12: Anopheles stephensi adult females, treated plates
Format: in vivo
Conditions: 200 ppm in ethanol; after 48 h and/or 24 h

Row | SMILES | control of Anopheles stephensi
1 | CCS(=O)(=O)c1ccc(-c2ncccn2)nc1-c1nc2cc(SC(F)(F)F)ncc2n1C [Compound P10, 2-(3-ethylsulfonyl-6-pyrimidin-2-yl-2-pyridyl)-3-methyl-6-(trifluoromethylsulfanyl)imidazo[4,5-c]pyridine] | at least 80%
2 | CCS(=O)(=O)c1ccc(C2CC2)nc1-c1nc2cc(SC(F)(F)F)ncc2n1C [Compound P13, 2-(6-cyclopropyl-3-ethylsulfonyl-2-pyridyl)-3-methyl-6-(trifluoromethylsulfanyl)imidazo[4,5-c]pyridine] | at least 80%
